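Whole-cell growth test on Mycobacterium tuberculosis, read after 3 days in glucose-containing 7H9 medium; the read-out is not stated. Concentration: 500 µM. Direction is inferred from retests: higher values go with more growth inhibition. Size under these conditions: about 18,000 compounds, about 1,400 of them at 50% or above in at least one test.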

Results are given as percent effect. The record does not define 0% and 100%; most values in the screen are far below 50% and negative numbers occur (in some assays of this library far below -100). The compounds are a random part of those screened.

| compound | percent effect |
|---|---|
| `CCOc1ccccc1OCCN1CC[S+]([O-])CC1` | -12.92 |
| `C=C(C)CNC(=O)NCCC(=O)NC1CCCC1` | 0.8003 |
| `CC(C)NS(=O)(=O)C1CCNC1` (stereo not given) | -5.452 |
| `O=C(Cn1ccc(=O)[nH]c1=O)Nc1ccc(Br)cc1` | -3.933 |
| `CSc1ccccc1C(=O)NCc1n[nH]c(C)n1` | 14.32 |
| `CC(C)C1CCCN1C(=O)c1cccc(NC(N)=O)c1` (stereo not given) | 11.41 |
| `c1cnc2ncnc(NC3CCOC3)c2c1` (stereo not given) | -0.5078 |
| `NC(=O)c1ccc(C(=O)NCCC(O)C(F)(F)F)cn1` (stereo not given) | 12.37 |
| `NCCS(=O)(=O)c1cccs1` | 13.72 |
| `CC(C)(C)Sc1cc(C(=O)NCC(O)C2CC2)ccn1` (stereo not given) | 39.26 |
| `CCCc1ccc(CN2C[C@H](OCC)[C@@H](O)C2)o1` | 71.11 |
| `COCc1ccccc1C(=O)N1CCCC(O)C1` (stereo not given) | -13.2 |
| `Cc1nnc(CNC(=O)CC2CCCCO2)n1C1CC1` (stereo not given) | 6.304 |
| `CNC(=O)COC(=O)c1scc(C)c1I` | 3.015 |
| `CCNc1ncc(C(=O)NCCN2CCOC2=O)cn1` | 18.6 |
| `N[C@H]1CN(CC(=O)N2CCCCC2)C[C@@H]1C1CC1` | -0.6812 |
| `O=C(c1cc(Cl)c[nH]1)N1CCC(N2CCSCC2)CC1` | 7.37 |
| `CC(C)C(=O)NC1(C#N)CCCC1` | 5.695 |
| `CC(C)OCCCNC(=O)c1ccc(S(N)(=O)=O)cc1` | 38.68 |
| `COc1ccccc1CC(=O)N1CCCNCC1` | 34.39 |
| `FC(F)(F)CNC1COC1` | -8.969 |
| `O=C(COC(=O)c1ccc2ccccc2n1)NC1CC1` | 0.301 |
| `CCOCCC(=O)NC(C)Cn1nc(C)cc1C` (stereo not given) | 13.04 |
| `CC(=O)N1CCC(C(=O)NCCc2sc(C)nc2C)C1` (stereo not given) | -1.083 |
| `O=C(Cc1cccs1)NCC1(O)CCCNC1` (stereo not given) | -10.44 |
| `CC(C)N1CCC(CN)C1` (stereo not given) | -15.73 |
| `CCOCCc1nnc(N)s1` | 7.955 |
| `CC[C@H]1COCCN1C(=O)c1ccn(CC)c(=O)c1` | 10.77 |
| `CC(C)(N)CNS(=O)(=O)c1ccc(F)c(Cl)c1` | 15.37 |
| `Cc1ccc(CN)cc1S(C)(=O)=O` | -4.071 |
| `CC(C)(C)C1CNCCO1` (stereo not given) | 7.103 |
| `Cc1cccc(C)c1NC(=O)Cn1cnc(C#N)n1` | -15.06 |
| `Cc1cc2nc(C(C)C)cc(N(C)CC(N)=O)n2n1` | 10.22 |
| `CC(C)(C)CNCCCNS(C)(=O)=O` | 6.323 |
| `CCCc1noc(COc2ccccc2C(N)=O)n1` | 40.89 |
| `CC(N)Cc1cccnc1` (stereo not given) | -15.04 |
| `CC(C)(CO)NC(=O)Nc1cccc2cccnc12` | 26.29 |
| `CC(C)(C)OC(=O)N1CC2(C1)NCCc1[nH]cnc12` | 12.68 |
| `CN1CCC(N(C)C(=O)c2ccccc2F)CC1` | -0.1843 |
| `Cc1nc(CN2CC3(CCNCC3)OC2=O)co1` | 0.3672 |
| `Cn1cc(C(N)=O)nn1` | 1.441 |
| `CN(C)[C@@H]1CN(C(=O)c2ccccc2)C[C@H]1CO` | -6.155 |
| `CC(C)NC(=O)c1ccc(CN2CCCC2)cc1` | 13.53 |
| `Cc1ncsc1C(=O)N(C)c1ncccc1C#N` | -5.807 |
| `O=C1CN(C(=O)CN2CCCC2c2ccsc2)CCN1` (stereo not given) | 17.36 |
| `O=C(NC(CO)c1ccccc1)[C@@H](O)c1ccccc1` (stereo not given in full) | 24.62 |
| `c1cncc(CN2CCC(N3CCCC3)CC2)c1` | 1.77 |
| `COC(=O)NC(C)C(=O)NCCc1nccn1C` (stereo not given) | -2.106 |
| `CC(C)c1cc(C(=O)NCCN(C)S(C)(=O)=O)no1` | 31.38 |
| `COc1ccc(OCCN2CCNCC2)cc1` | -18.3 |
| `C1CC(N2CCOCC2)CCN1` | 0.4783 |
| `CCSCCC(=O)N1CCC(c2nnc[nH]2)CC1` | 4.555 |
| `CC(=O)N(CCc1ccccc1)Cc1ccncc1` | 40.06 |
| `CC(C)(C)O[C@H]1C[C@H](N)C1` | -27.52 |
| `CC[C@H](N)C(=O)N1CCN(C)C2(CCN(C)CC2)C1` | 4.719 |
| `CN(C)S(=O)(=O)c1ccc(OC(F)(F)F)cc1` | 11.83 |
| `NC(=O)NC(=O)CSc1nnc(-c2ccccc2F)[nH]1` | 0.6955 |
| `CCc1cnc(NCCCN2CCN(C)CC2)nc1` | 14.88 |
| `CNCC1CCCN(C(=O)Cc2cccc(F)c2F)C1` (stereo not given) | 3.408 |
| `CCC[C@H]1CN(C(=O)c2cc(F)ccc2OC)C[C@@H]1N` | 34.82 |
| `COCC(C)CNc1cccc(S(=O)(=O)N(C)C)c1` (stereo not given) | -3.649 |
| `O=C(CN1CCCC1)NCCc1nc(C2CC2)no1` | 7.885 |
| `Cc1cc(C(=O)NCc2ccc(F)cc2)[nH]n1` | 61.23 |
| `CC(Cc1cccs1)C(=O)N1CC[C@H](O)C1` (stereo not given in full) | 15.74 |
| `Cc1noc(CS(=O)(=O)CC(=O)N2CCCC(C)C2)n1` (stereo not given) | 11.5 |
| `Cn1ccnc1SCCNC(=O)c1ccc(C#N)cc1` | 44.26 |
| `O=C(CC1=CCCCC1)N1CCOc2ccncc21` | 23.72 |
| `CN1CCCC1CCSc1nc(N)c(C#N)cc1C#N` (stereo not given) | 15.43 |
| `OC1CNCCNC1` | -4.568 |
| `O=c1[nH]c(NCCO)nc2ccccc12` | 4.636 |
| `CC(C)[C@H]1CN(CCC(=O)N(C)C)C[C@@H]1N` | 3.951 |
| `Cc1cc(C(=O)N2CCOCC2)c2ccc(F)cc2n1` | -7.365 |
| `O=C(OCCOc1cccnc1)C1CC1` | 32.86 |
| `COc1ccc(C(=O)NC2(C#N)CCOCC2)cc1Br` | 25.63 |
| `CC(C)NC(=O)CNCc1ccc(Br)o1` | 46.33 |
| `O=C1CCCc2sccc2N1` | 14.09 |
| `NC(=O)C1CCCN(c2nccc(C(F)(F)F)n2)C1` (stereo not given) | 0.5861 |
| `CNc1ncccc1C(=O)NCCS(=O)(=O)N(C)C` | 5.642 |
| `NCC(=O)NCc1ccncc1` | 6.793 |
| `OCC1(O)CCCN(Cc2ccccc2)C1` (stereo not given) | 11.22 |
| `Cc1n[nH]c(SCC(=O)NCCN2CCCC2=O)n1` | 9.781 |
| `COc1ccc2[nH]c(C)nc2c1` | 3.122 |
| `CN1N=C(C(=O)NCCn2cccc2)CCC1=O` | -4.645 |
| `O=S(=O)(Nc1cccnc1O)c1ccccc1Cl` | 21.42 |
| `COc1ccc2oc(CNC(C)(CO)CO)cc2c1` | 4.096 |
| `NCC(O)C1CCOCC1` (stereo not given) | -11.45 |
| `NC(=O)[C@H](Cc1ccccc1)NC(=O)c1cnn[nH]1` | 6.409 |
| `CNC(=O)c1cccc(NCCN2CCCC(C)C2)n1` (stereo not given) | -6.588 |
| `Cc1noc(C(=O)NCCN2CCOCC2)c1Cl` | -7.13 |
| `CN(CCc1cnn(C)c1)C(=O)CN1CCOC1=O` | 8.147 |
| `CCC=C(C)C(=O)NCC(C)N1CCN(CC)CC1` (stereo not given) | 37.19 |
| `NC(=O)c1cnc(NC(=O)CCC2CCCO2)s1` (stereo not given) | 8.086 |
| `CCCc1noc(COc2nc(C)no2)n1` | 11.6 |
| `CN1CCN(c2cc(C#N)ccn2)CC1` | 7.91 |

8 of the entries, repeated:

For NCC(O)C1CCOCC1 (stereo not given) the result was -11.45%.
For O=C1CCCc2sccc2N1 the result was 14.09%.
For C=C(C)CNC(=O)NCCC(=O)NC1CCCC1 the result was 0.8003%.
For CC(C)(C)O[C@H]1C[C@H](N)C1 the result was -27.52%.
For CCc1cnc(NCCCN2CCN(C)CC2)nc1 the result was 14.88%.
For CC(C)NC(=O)CNCc1ccc(Br)o1 the result was 46.33%.
For N[C@H]1CN(CC(=O)N2CCCCC2)C[C@@H]1C1CC1 the result was -0.6812%.
For O=S(=O)(Nc1cccnc1O)c1ccccc1Cl the result was 21.42%.

Source: ChEMBL document CHEMBL3988442, “University of Dundee, Small-Polar-MMV Screening Library” (2021).